Laboratory results reported in PubChem BioAssay AID2685 (National Center for Advancing Translational Sciences (NCATS), 2010).
The list shows a part of the results. Shown are side measurements of this screen, not its main read-out; they come without a call. Compounds called inactive in the main read-out are mostly missing here. Words in brackets tell the shape of the fitted curve; partial curves, single points and poor fits give uncertain potencies.

Experiment: qHTS Assay for Lipid Storage Modulators in Drosophila S3 Cells;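 on cell number change: cells counted by Cell Tracker Red CMTPX staining in the red channel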
Settings: BODIPY lipid droplet fluorescence, 18-24 h; for cell number change: measured here: cell count max response, cells fed with added oleic acid
Outline: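 Drosophila S3 cells got compounds at several concentrations plus oleic acid (400 uM solution). Laser-scanning cytometry with 488 nm excitation read lipid droplets at 500-530 nm and cells at 575-640 nm. Percent activity was relative to 20 uM Triacsin C.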

[1] = measured here: lipid fluorescence (Fed channel) AC50, cells fed with added oleic acid
[2] = measured here: cell number channel AC50, cells fed with added oleic acid

Structure (SMILES) | cell number change | AC50 [1] | AC50 [2]
c1csc(-c2nnc(N3CCOCC3)c3ccccc23)c1 | -3.35% | – | –
O=C(Cn1c(C(=O)O)cc2ccccc21)c1ccccc1 | 5.11% | 3660 nM [rising, full curve] | –
COCCn1c(SC(C)C(=O)NC2CCCCC2C)nc2ccccc2c1=O (stereo not drawn) | -13.3% | – | –
COc1cccc(-c2nn(-c3ccccc3)cc2CO)c1 | -14.4% | 1030 nM [rising, full curve] | –
NC(=O)N/N=C/c1cccc(C(F)(F)F)c1 | 4.48% | 820 nM [falling, single point] | –
c1ccc(OCc2nn3c(-c4ccccn4)nnc3s2)cc1 | 12.5% | 32600 nM [rising, single point] | 4.61 nM [rising, full curve, poor fit]
Cc1cccc(-n2c(-c3ccco3)n[nH]c2=S)c1 | 22.7% | 731 nM [falling, full curve] | –
O=C(O)CSCC(=O)NCc1ccc(Cl)cc1Cl | 7.01% | 6510 nM [falling, single point] | –
CCOC(=O)c1ccc(NC(=S)N2CCC(C(N)=O)(N3CCCCC3)CC2)cc1 | 17.5% | 20600 nM [falling, single point] | –
CN(c1ccccc1)S(=O)(=O)c1cccc(NS(=O)(=O)c2ccc(/C=C/C(=O)O)cc2)c1 | 55.3% | – | 29100 nM [rising, partial curve, poor fit]
CC(=O)Nc1cccc(NC(C)=O)n1 | – | 1460 nM [falling, partial curve] | –
COc1cc(OC)cc(C(=O)N2CCN(c3ccc(N4CCOCC4)nn3)CC2)c1 | -23.2% | – | –
CC(=O)Nc1ccc(S(=O)(=O)N(C)CC(=O)N/N=C/c2ccc(C(=O)O)cc2)cc1 | 3.23% | 3660 nM [rising, full curve] | –
Cc1ccc(NS(=O)(=O)c2c(C)[nH]c(=O)[nH]c2=O)cc1C | -48.8% | 2310 nM [falling, full curve] | 580 nM [falling, full curve]
CCOC(=O)c1c(NC(=O)COc2ccccc2F)sc2c1CC(C)(C)NC2(C)C | 18.6% | 4.61 nM [falling, full curve, poor fit] | –
COc1cccc(CNC(=O)CCCC(=O)NC(C)CCc2ccccc2)c1 (stereo not drawn) | 0.872% | 16400 nM [falling, single point] | –
CCN(CC)c1ccc(-n2c(C)c(C(C)=O)c(C(C)=O)c2C)cc1 | -21.3% | – | –
CCOC(=O)Nc1nc(-c2ccccc2)c(C(=O)c2ccc(Cl)cc2)s1 | 6.12% | – | –
O=C(Nc1ccc(F)cc1)Nc1cc(S(=O)(=O)N2CCOCC2)ccc1N1CCCC1 | -20.3% | 2590 nM [falling, full curve, poor fit] | 5.17 nM [falling, full curve, poor fit]

Structure (SMILES) | cell number change | AC50 [1] | AC50 [2]
O=C1c2ccccc2C(O)(c2ccccc2)N1c1ccncc1 (stereo not drawn) | -3.02% | 51.7 nM [rising, full curve, poor fit] | –
COc1ccc(-n2c(-c3ccc(C)cc3)n[nH]c2=S)cc1 | 0.999% | 5.17 nM [falling, full curve, poor fit] | –
Cc1cccc(NC(=O)CSc2nnc(-c3ccco3)c(-c3ccco3)n2)c1 | 21.6% | 5170 nM [rising, full curve, poor fit] | –
Cc1c(NC(=O)CN2CCN(c3ccc([N+](=O)[O-])cc3)CC2)c(=O)n(-c2ccccc2)n1C | 23% | – | –
Cc1sc2nc(SCC(=O)NCCCO)n(-c3ccccc3)c(=O)c2c1C | 25.9% | 6510 nM [rising, partial curve, poor fit] | –
N#C/C(=N/O)c1nc(-c2ccc(F)cc2)cs1 | -30.6% | – | 23100 nM [falling, single point]
CC(C)Cn1c(N)c(C(=O)CSc2ccc3c(c2)OCCO3)c(=O)n(C)c1=O | -25.9% | – | –
CN(C(=O)CSc1nc2c(cnn2-c2ccccc2)c(=O)[nH]1)C1CCS(=O)(=O)C1 (stereo not drawn) | -18.3% | 23100 nM [falling, single point] | –
CC(=O)N1c2ccc(S(=O)(=O)N3CCC(C(=O)NCCc4ccc(Cl)cc4)CC3)cc2CC1C (stereo not drawn) | -31.2% | 5.8 nM [rising, full curve, poor fit] | 32600 nM [falling, single point]
COC(=O)c1ccc(/C=N/NC(=O)C(=O)NCc2ccccc2)cc1 | -36.4% | 29100 nM [falling, partial curve] | 18400 nM [falling, single point]
COc1ccc(N2CCN(c3nc4ccc(C)cn4c(=O)c3C=O)CC2)cc1 | -1.03% | – | 1780 nM [falling, partial curve]
CCN(CC(=O)Nc1c(F)cccc1F)C(=O)CN1C(=O)c2ccccc2C1=O | 4.5% | – | –
O=C(CSc1nnc(NC(=O)C2CC2)s1)Nc1ccccc1Cl | 28.2% | 29100 nM [rising, single point] | –
COc1ccccc1-c1nc(=S)c(C(C)=O)c(C)[nH]1 | 3.13% | 184 nM [rising, full curve, poor fit] | –
COc1ccc(/C=C/C(=O)c2cc(F)ccc2OC(=O)c2ccccc2C)cc1OC | – | 8200 nM [falling, partial curve, poor fit] | 58 nM [rising, full curve, poor fit]
COc1ccc(OCCSc2nc3ccccc3n2CCC(=O)O)cc1 | 11.7% | 29100 nM [rising, single point] | 2310 nM [rising, partial curve]
Cc1ccc(Nc2nnc(C3C(=O)N(C)C4(C)CC3c3cc(Br)ccc3O4)s2)cc1 (stereo not drawn) | 32.5% | 2310 nM [rising, partial curve] | 1840 nM [rising, full curve]
CC1CN(C(=O)c2ccccc2Nc2ccc(SC(F)F)cc2)CC(C)O1 (stereo not drawn) | 24.9% | 8200 nM [rising, partial curve] | –
CCOc1ccc(NS(=O)(=O)c2ccc(-c3ccc(=O)[nH]n3)o2)cc1 | – | – | 1840 nM [falling, partial curve]

Shown as a markdown table: entries from further up

| Structure (SMILES) | cell number change | AC50 [1] | AC50 [2] |
| --- | --- | --- | --- |
| Cc1c(NC(=O)CN2CCN(c3ccc([N+](=O)[O-])cc3)CC2)c(=O)n(-c2ccccc2)n1C | 23% | – | – |
| N#C/C(=N/O)c1nc(-c2ccc(F)cc2)cs1 | -30.6% | – | 23100 nM [falling, single point] |
| CC(C)Cn1c(N)c(C(=O)CSc2ccc3c(c2)OCCO3)c(=O)n(C)c1=O | -25.9% | – | – |
| CN(C(=O)CSc1nc2c(cnn2-c2ccccc2)c(=O)[nH]1)C1CCS(=O)(=O)C1 (stereo not drawn) | -18.3% | 23100 nM [falling, single point] | – |
| CC(=O)N1c2ccc(S(=O)(=O)N3CCC(C(=O)NCCc4ccc(Cl)cc4)CC3)cc2CC1C (stereo not drawn) | -31.2% | 5.8 nM [rising, full curve, poor fit] | 32600 nM [falling, single point] |
| COC(=O)c1ccc(/C=N/NC(=O)C(=O)NCc2ccccc2)cc1 | -36.4% | 29100 nM [falling, partial curve] | 18400 nM [falling, single point] |
| COc1ccc(N2CCN(c3nc4ccc(C)cn4c(=O)c3C=O)CC2)cc1 | -1.03% | – | 1780 nM [falling, partial curve] |
| Cc1ccc(Nc2nnc(C3C(=O)N(C)C4(C)CC3c3cc(Br)ccc3O4)s2)cc1 (stereo not drawn) | 32.5% | 2310 nM [rising, partial curve] | 1840 nM [rising, full curve] |
